From the supplement of paper PMC5949888
Most values lie at the floor of the assay. Slopes are relative: functional sequences can read slightly below zero.

The substances below were run on Saccharomyces cerevisiae PS128 hsf1 delta, HSF1(1-493) fusion (assay: growth estimate (transactivation domain function in HSF1 fusion, heat-shock survival) (a.u. (slope of normalised read count over time)); higher = stronger growth at 37°C, i.e. more transactivation activity). Details: library: random library.
Experimental: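 Random 60-nt DNA library encoding peptides of up to 20 aa, fused to the C-terminus of yeast HSF1 residues 1-493 (C-terminal TAD deleted) and expressed from the native HSF1 promoter on a CEN plasmid in hsf1-deleted S. cerevisiae PS128. Cells were selected at 37°C on -trp 5-FOA plates for 0, 2, 4, 6 and 8 days and amplicons were sequenced. Growth estimate is the slope of a robust linear fit of total-sum-normalised read counts (normalised to the first time point) over time, using at least 2 replicates. Sequences are classed functional (TAD activity) above a threshold of -0.13, set from stop-codon control sequences.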
In the case of EHTSPSIWLSLS, the growth estimate is reported as under -0.25.
For EHVDRDGGSATLHSDPV, the growth estimate was under -0.25.
Work on EHVSA yielded a growth estimate of under -0.25.
Work on EHVVVVLLRVILENETNGAT yielded a growth estimate of under -0.25.
For EICGYTRRQRNLAREGPKAS, the growth estimate was under -0.25.
For EIDFIILRPASLLMNPAHLF, the growth estimate was under -0.25.
For EIHGHEAYPRVSPFYFWPWS, the growth estimate was under -0.25.
EILDQLSTHGIAVEEPTGQP showed a growth estimate of under -0.25.
EILL gave a growth estimate of under -0.25.
With EILTSLRLGCSYCARCIGWV the growth estimate was under -0.25.
EINPG gave a growth estimate of under -0.25.
In the case of EIRICSAL, the growth estimate is reported as under -0.25.
With EIRKAVIVRTVHYSVFPQAC the growth estimate was under -0.25.
EIRYSEMY showed a growth estimate of -0.126.
EISSAWTRLRD was tested, and the growth estimate was under -0.25.
EIVL was tested, and the growth estimate was -0.236.
EIVLGSLGNY was tested, and the growth estimate was under -0.25.
Substance EKADGNEEGDTATINCQALD has a growth estimate of under -0.25.
Substance EKATVAGAPLRPCTSGEEKT has a growth estimate of under -0.25.
For EKDTKPRDR, the growth estimate was under -0.25.
Substance EKEMLFSSLIKGDDPIHISP has a growth estimate of under -0.25.
Work on EKERAHFPGKEGYTPECLAA yielded a growth estimate of under -0.25.
EKFRIETVGGSQRFALFPAD was tested, and the growth estimate was under -0.25.
Substance EKRLLHFG has a growth estimate of under -0.25.
For EKRRYSVCALCL, the growth estimate was under -0.25.
Work on EKRVTRVEFVGVHVDSDGRE yielded a growth estimate of under -0.25.
EKS gave a growth estimate of under -0.25.
In the case of EKSLW, the growth estimate is reported as under -0.25.
In the case of EKSNKGPVTSCVW, the growth estimate is reported as under -0.25.
For EKVWLASCGIFGSIRREMVR, the growth estimate was under -0.25.
With EKWGSCLKLVDGL the growth estimate was -0.19.
In the case of ELATAAKST, the growth estimate is reported as under -0.25.
ELCCDGEFASRHSFLHLVLR showed a growth estimate of under -0.25.
ELCHQADRDGVHGDVISHVC was tested, and the growth estimate was under -0.25.
In the case of ELCSSMATATSILQSGSLSG, the growth estimate is reported as under -0.25.
Substance ELDKVRVLIL has a growth estimate of under -0.25.
ELDRI was tested, and the growth estimate was under -0.25.
ELDWDRGLQWYASNLV was tested, and the growth estimate was 0.358.
ELGAPGPREAVGLGAPRDE showed a growth estimate of -0.237.
For ELGGGAIWV, the growth estimate was under -0.25.
ELH gave a growth estimate of under -0.25.
ELHIFFAPLGNNRMQGQNLA gave a growth estimate of under -0.25.
Substance ELKARSYFPIYVDFLGRCVH has a growth estimate of under -0.25.
ELL was tested, and the growth estimate was under -0.25.
In the case of ELLLDAAQRMLFLAVCFTYE, the growth estimate is reported as under -0.25.
ELLQALGVCGQTRVNGTRVD showed a growth estimate of under -0.25.
Work on ELMIFRDRLSGMWPPR yielded a growth estimate of under -0.25.
ELPDYVLLRPIV was tested, and the growth estimate was under -0.25.
With ELPYN the growth estimate was under -0.25.
Work on ELQCTSRYYFDCTRGKERAV yielded a growth estimate of under -0.25.
Work on ELQLVYMHSRA yielded a growth estimate of under -0.25.
ELR was tested, and the growth estimate was -0.246.
For ELRCYLTRENDATGTDGASA, the growth estimate was under -0.25.
Substance ELRGPPYSC has a growth estimate of under -0.25.
ELRRFLLGLMEDRICSNTRS gave a growth estimate of -0.243.
For ELTAGAHGGPAEDRHGRLRA, the growth estimate was under -0.25.
Substance ELTALAVIRFISKSPEPAVQ has a growth estimate of under -0.25.
Work on ELTGVVRFANGR yielded a growth estimate of under -0.25.
ELTVMRSITHK was tested, and the growth estimate was under -0.25.
In the case of ELW, the growth estimate is reported as under -0.25.
For ELYRANGQSR, the growth estimate was under -0.25.
Work on EMAGTSSCPCRGGHLYDRTC yielded a growth estimate of under -0.25.
With EMLTTSCTTRIFPVCSFMRT the growth estimate was under -0.25.
EMRMVLCTAEVVN showed a growth estimate of -0.243.
With EMSPIRSAMRGR the growth estimate was under -0.25.
With EMSVGFRRKCGALDTRSRGV the growth estimate was under -0.25.
EMTVQRRGPQQSTYVIRTTQ showed a growth estimate of under -0.25.
ENCFILGERDPNDSCGAT was tested, and the growth estimate was under -0.25.
ENEGMVGSNTTSFWRLTGRP was tested, and the growth estimate was under -0.25.
Work on EPDWLGERLCGWA yielded a growth estimate of under -0.25.
EPFSFSWRILSSGTCQQHPR was tested, and the growth estimate was under -0.25.
EPGLVHRGMAQL gave a growth estimate of under -0.25.
EPGPCL showed a growth estimate of -0.236.
EPGRLGVMSSSQLAPNSFER gave a growth estimate of under -0.25.
Substance EPGVSGKIAWVEHFWG has a growth estimate of under -0.25.
EPKAASRIGIAPAKQVLRGT gave a growth estimate of under -0.25.
In the case of EPKRVHISQIPISVRRASLR, the growth estimate is reported as under -0.25.
EPKVVTSRNGGVYPVPITPP showed a growth estimate of under -0.25.
With EPLIRGRGSDAIARVCPLGP the growth estimate was under -0.25.
For EPLY, the growth estimate was under -0.25.
For EPPCVHMGRSR, the growth estimate was under -0.25.
With EPPPVRDAQGRRQYT the growth estimate was under -0.25.
EPQTLWVTNGFV was tested, and the growth estimate was under -0.25.
Work on EPRRSA yielded a growth estimate of under -0.25.
Work on EPRVKLR yielded a growth estimate of under -0.25.
For EPSTCLVPQTPWAP, the growth estimate was under -0.25.
For EPVYRRAGERHGMDGGCTN, the growth estimate was under -0.25.
EQDKDDPSVAV gave a growth estimate of under -0.25.
Work on EQEISVPRLRLGTIPPSHRG yielded a growth estimate of under -0.25.
Work on EQFRGRKSSGRSGDSGGHVS yielded a growth estimate of under -0.25.
EQFVAPCWAE gave a growth estimate of under -0.25.
With EQGAGPGFTVLNALGRSHQG the growth estimate was under -0.25.
With EQGRRFVNDSEGLRLHKPSV the growth estimate was under -0.25.
EQIFS gave a growth estimate of under -0.25.
Work on EQILDVRTRRTVVRTLFIIN yielded a growth estimate of under -0.25.
